# In PubChem BioAssay AID540276 (National Center for Advancing Translational Sciences (NCATS), 2011):
# The whole screen tested about 300,000 compounds, of which about 5,400 (1.8%) were called active. Inconclusive results, whose numbers are uncertain, are shown with a selection of clear calls. The call rests on the fitted dose curve; tested in HEK293 cells. Where the call is inconclusive, the potency comes from a doubtful curve fit.
# Assay: qHTS for inhibitors of binding or entry into cells for Marburg Virus
# Settings: Marburg virus pseudotyped entry inhibition, cell reporter; activity change, negative = inhibition: at 37.8 µM (top of the series) unless noted
# On the % scale 0 is the no-effect control and ±100 the full control effect; potency means the concentration at half of the fitted maximal effect.
SMILES,Potency,"activity change, negative = inhibition"
N#Cc1cc2cc3c(cc2nc1SCC(=O)N1CCOCC1)OCCO3,"inconclusive: 2.82 µM [inhibitor, full curve, poor fit]",–
COc1ccc(S(=O)(=O)Nc2nc3c(s2)CCCC3)cc1,"inconclusive: 8.91 µM [inhibitor, partial curve, poor fit]",–
COc1ccc(NC(=O)CN(C)C(C)C(=O)N2CCCCC2)cc1 (stereo not given),"inconclusive: 0.291 µM [inhibitor, partial curve, poor fit]",–
Cc1csc(=O)n1CCC(=O)OCC(=O)Nc1ncc(Cl)cc1Cl,–,inactive: -2.16%
O=C(Nc1ccc(F)cc1)c1ccc(CSc2ccccc2)o1,–,inactive: 1.09%
O/N=C/c1ccc(OCc2ccccc2)c(Cl)c1,"inconclusive: 35.5 µM [inhibitor, single point]",–
Cc1nnc(NC(=O)C2CC(=O)N(Cc3ccccc3)C2)s1 (stereo not given),–,inactive: -1.09% [at 46.1 µM]
Cn1c(=O)c(C(=O)NNC(=O)c2cccc(Cl)c2)c(O)c2ccccc21,"inconclusive: 2.51 µM [inhibitor, full curve, poor fit]",–
CC(C)(C)c1nc2ccccc2[nH]1,–,inactive: 17.2% [at 46.1 µM]
Cc1nn2cc(-c3ccc(Cl)cc3)cnc2c1Cl,"inconclusive: 5.01 µM [activator, single point]",–
Cc1cccc(-c2nn(-c3ccccc3)cc2C(=O)NCC(c2cccs2)N2CCOCC2)c1 (stereo not given),"inconclusive: 11.2 µM [inhibitor, single point]",–
OCC1CCCN(Cc2ccc(-c3ccccc3)cc2)C1 (stereo not given),–,inactive: -10.2%
CCn1c(C)cc(C=C2C(=O)c3ccccc3C2=O)c1C,active: 12.6 µM,–
COc1ccc(/C=N\NC(=O)c2ccc(F)cc2)cc1COc1ccccc1C(N)=O,"inconclusive: 17.8 µM [inhibitor, partial curve, poor fit]",–
C=CCn1c(O)c(C(C)=NCCc2c[nH]c3ccccc23)c(=O)[nH]c1=O,"inconclusive: 0.355 µM [inhibitor, partial curve, poor fit]",–
CN1CCN(c2nc(-c3cccnc3)nc3ccccc23)CC1,"inconclusive: 29.1 µM [inhibitor, single point]",–
O=C(NCC1CCCO1)c1nc2c(nnn2Cc2ccccc2Cl)c(=O)[nH]1 (stereo not given),–,inactive: -15.9%
Cc1nc2ccccc2c(C)c1C(=O)c1ccccc1,"inconclusive: 3.16 µM [activator, partial curve, poor fit]",–
CCOc1ccc(NC(=O)CN(C)S(=O)(=O)c2cnc[nH]2)cc1,"inconclusive: 22.4 µM [activator, single point]",–
CC(Sc1nnc2c(n1)[nH]c1ccccc12)C(=O)NC1CCCCC1 (stereo not given),active: 4.47 µM,–
COc1ccc(-c2cc3nnc(-c4ccccc4)nc3s2)cc1,"inconclusive: 0.562 µM [inhibitor, full curve]",–
Cc1cc(C)n(C[C@@H]2CC(=O)N(c3ccc(C)c(Cl)c3)C2=O)n1,"inconclusive: 22.4 µM [activator, partial curve, poor fit]",–
Cc1c(O)ccc(/C(Cc2ccc3ccccc3n2)=N\O)c1O,–,inactive: -1.97%
C[C@@H]1CC[C@H]2C(=O)N(Cc3ccc(Cl)cc3)C[C@@H](O)CN2[C@H]1c1cccc(Br)c1,"inconclusive: 5.96 µM [activator, single point]",–

# Random excerpt: 2 compounds from above
SMILES,Potency,"activity change, negative = inhibition"
Cc1cccc(-c2nn(-c3ccccc3)cc2C(=O)NCC(c2cccs2)N2CCOCC2)c1 (stereo not given),"inconclusive: 11.2 µM [inhibitor, single point]",–
CCn1c(C)cc(C=C2C(=O)c3ccccc3C2=O)c1C,active: 12.6 µM,–

# Sorted by molecular weight (smallest number first): part of the list above
SMILES,Potency,"activity change, negative = inhibition"
CCn1c(C)cc(C=C2C(=O)c3ccccc3C2=O)c1C,active: 12.6 µM,–
O=C(Nc1ccc(F)cc1)c1ccc(CSc2ccccc2)o1,–,inactive: 1.09%
CCOc1ccc(NC(=O)CN(C)S(=O)(=O)c2cnc[nH]2)cc1,"inconclusive: 22.4 µM [activator, single point]",–

# Continued.

SMILES,Potency,"activity change, negative = inhibition"
CCOC(=O)c1ccc(NC2=CC(=O)CC(c3ccco3)C2)cc1 (stereo not given),"inconclusive: 6.31 µM [inhibitor, single point]",–
NC1=NOC(=O)C1C1CCCCC1 (stereo not given),"inconclusive: 3.16 µM [inhibitor, full curve]",–
Cc1ccc(-c2nc3cc(C(C)C)ccc3o2)cc1NC(=O)c1cc([N+](=O)[O-])ccc1N1CCOCC1,"inconclusive: 3.16 µM [activator, partial curve, poor fit]",–
CCCCC(=O)NNC(=S)NCc1ccccc1,"inconclusive: 12.6 µM [activator, single point]",–
CCOc1ccc(-c2noc(CSc3nnc(Cc4ccccc4)n3-c3cccc(C)c3)n2)cc1,"inconclusive: 17.8 µM [inhibitor, partial curve, poor fit]",–
Cn1c(CNC(=O)c2cccs2)n[nH]c1=S,"inconclusive: 5.62 µM [activator, full curve, poor fit]",–
O=C(NC1CCCCCCC1)NC1CCCCC1,–,inactive: 3.59% [at 46.1 µM]
O=C(COC(=O)c1cc2ccccc2cc1O)NC1CCCCC1,"inconclusive: 0.631 µM [activator, full curve, poor fit]",–
CCc1nnc(NC(=O)C2CC(=O)N(C3CCCC3)C2)s1 (stereo not given),"inconclusive: 14.1 µM [activator, partial curve, poor fit]",–
CCCCOCCCNC(=O)N[C@H](C(=O)OC)C(C)C,–,inactive: 11.5%
Cc1cccc(/C=C2\CCC(=C3SCCCS3)C2=O)c1,"inconclusive: 5.01 µM [inhibitor, partial curve, poor fit]",–
CC1CN(c2ccc([N+](=O)[O-])c(NCCOc3ccccc3)c2)CCN1 (stereo not given),"inconclusive: 10 µM [inhibitor, partial curve, poor fit]",–
CCOC(=O)c1cnc2ccc(C)cc2c1Nc1ccc(N2CCOCC2)cc1,"inconclusive: 35.5 µM [inhibitor, single point]",–
CCOC(=O)C1=C(N)n2c(s/c(=C/c3ccco3)c2=O)=C(C(=O)OC)C1c1ccco1 (stereo not given),"inconclusive: 5.17 µM [inhibitor, full curve]",–
CCn1c(NC(=O)c2ccco2)c(-c2ccccc2Cl)c(=O)c2ccccc21,–,inactive: -11.1%
COc1ccc2[nH]c3nc(SC(C)C)nnc3c2c1,"inconclusive: 2.24 µM [inhibitor, full curve, poor fit]",–
Cc1ccccc1NC(=O)c1ccc(NC(=O)C2CC(=O)OC23CCCCC3)cc1 (stereo not given),–,inactive: 19.2% [at 46.1 µM]
COCc1cc(C)nc2sc(C(=O)Nc3cc(C)ccc3F)c(N)c12,"inconclusive: 5.62 µM [activator, full curve, poor fit]",–
Cc1ccc(Oc2ccc(C(=O)NCc3ccncc3)cc2)cc1,"inconclusive: 10 µM [inhibitor, partial curve, poor fit]",–
Cc1csc(=NC(=O)c2ccccc2)n1Cc1ccco1,–,inactive: -6.27%
Cc1cc(-c2nc3ccccc3o2)c2ccccc2n1,–,inactive: -15.6%
O=C(OCC(=O)N1CCOCC1)c1ccc2ccccc2c1O,"inconclusive: 3.98 µM [activator, partial curve, poor fit]",–
CC(=O)c1ccc(S(=O)(=O)NC2CCSc3ccccc32)cc1 (stereo not given),"inconclusive: 35.5 µM [inhibitor, single point]",–
COc1cnc(-c2ccccn2)nc1Oc1cccc(Cl)c1,"inconclusive: 22.4 µM [inhibitor, single point]",–

SMILES,Potency,"activity change, negative = inhibition"
CCOc1ccc(OCC)c(Nc2nc3ccc(Cl)cc3n3cnnc23)c1,"inconclusive: 3.55 µM [inhibitor, partial curve, poor fit]",–
COc1cccc(CNC(=O)Cn2c(C)c3cnn(-c4ccccc4)c(=O)c3c2C)c1,–,inactive: 0.75% [at 46.1 µM]
CC1C(Br)C(=O)NC(=O)N1Cc1ccccc1 (stereo not given),–,inactive: 10.2% [at 46.1 µM]
COCCOc1nc2c(c(=O)n(C)c(=O)n2C)n1Cc1cccc(OC)c1,"inconclusive: 11.2 µM [inhibitor, single point]",–
CC(C)CN(CCNC(=O)c1cc(-c2ccc(Cl)s2)nc2ccccc12)CC(C)C,–,inactive: 2.69% [at 46.1 µM]
CN(C(=O)CCN1C(=O)C(C)(C)Nc2ccccc21)c1ccccc1,–,inactive: -3.15%
Cc1c(C(=O)C(=O)NCc2cccs2)c2ccccc2n1C,"inconclusive: 6.31 µM [activator, single point]",–
COCc1[nH]nc2c1[C@@H](c1ccnc3ccccc13)C(C#N)=C(N)O2,–,inactive: -14.7%
CCCN(C(=O)Cn1cc(S(=O)(=O)N2CCN(c3ccccc3F)CC2)c2ccccc2c1=O)c1cccc(C)c1,"inconclusive: 2.82 µM [inhibitor, single point]",–
CN(C)/C=C(\C#N)C(=O)Nc1ccc(F)cc1,"inconclusive: 8.91 µM [activator, partial curve, poor fit]",–
O=P1(O)Oc2c(c(-c3ccccc3)cc3ccc4ccccc4c23)-c2c(-c3ccccc3)cc3ccc4ccccc4c3c2O1,inactive,–
COc1cccc2cc(C(=O)N3CCCCCCC3)c(=O)oc12,"inconclusive: 2.51 µM [activator, single point]",–
O=C(C1CCN(Cc2cc(Cl)ccc2O)CC1)N1CCN(Cc2ccccc2)CC1,"inconclusive: 35.5 µM [inhibitor, single point]",–
O=c1[nH]c(O)c(C=Nc2ccc(Cl)cc2Cl)c(=O)[nH]1,"inconclusive: 1.12 µM [inhibitor, partial curve, poor fit]",–
CC1(C)CC(=O)C2=C(C1)OC(N)=C(C#N)C21C(=O)N(CN2CCOCC2)c2ccccc21 (stereo not given),"inconclusive: 15.8 µM [activator, single point]",–
O=C(NCC(=O)N1CCc2ccccc2C1)c1ccccc1Cl,"inconclusive: 3.98 µM [activator, partial curve, poor fit]",–
O=C(c1ccc(Cl)cc1)c1oc2ccccc2c1CS(=O)(=O)c1ccccc1,–,inactive: 3.95%
C=CCNc1nc(N)c([N+](=O)[O-])c(N2CCCCCC2)n1,"inconclusive: 22.4 µM [inhibitor, partial curve, poor fit]",–
C/C(=N\Nc1nc2ccccc2[nH]1)c1ccc2c(c1)OCO2,active: 11.6 µM,–
O=C(Nc1ccc(SC(F)F)cc1)c1ccc2nccnc2c1,"inconclusive: 29.1 µM [inhibitor, single point]",–
C=COC(=O)c1sc2nc(C)cc(C)c2c1N,inactive,–
COc1ccc(OCC(=O)Nc2cc3oc4ccccc4c3cc2OC)cc1,"inconclusive: 0.316 µM [activator, partial curve, poor fit]",–
